The record followed here is patent US20150098947A1 (RESEARCH DEVELOPMENT FOUNDATION, published 2015).

The target in one assay is T1, human Olfml3-FLAG (human, UniProt Q9NRN5 22-406, limits assumed).
T1 construct: Screening antigen of the hybridoma ELISA; the tag is written last only by convention; not shown: FLAG tag
T1 sequence (looked up): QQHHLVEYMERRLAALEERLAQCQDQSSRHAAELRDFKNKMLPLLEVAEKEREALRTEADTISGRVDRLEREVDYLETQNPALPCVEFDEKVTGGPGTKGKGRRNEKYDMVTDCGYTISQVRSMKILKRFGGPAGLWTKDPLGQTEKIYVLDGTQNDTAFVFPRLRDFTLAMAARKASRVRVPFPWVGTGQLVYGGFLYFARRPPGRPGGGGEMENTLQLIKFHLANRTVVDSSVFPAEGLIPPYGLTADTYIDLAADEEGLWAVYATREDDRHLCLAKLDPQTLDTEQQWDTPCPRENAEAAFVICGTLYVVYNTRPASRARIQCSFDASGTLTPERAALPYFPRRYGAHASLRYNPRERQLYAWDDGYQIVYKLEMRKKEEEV
Put plainly: hybridoma screening ELISA. Here is the method: The inventors produced a panel of monoclonal antibodies against a recombinant Olfml-3 protein. Three antibodies against human Olfml3 were generated using standard techniques by injecting simultaneously two 14-aa long peptides comprising epitopes in the coiled-coil (peptide A, 86-99 aa: […]; SEQ ID NO: 5) and the olfactomedin-like domains (peptide B, 390-403 aa: […]; SEQ ID NO: 6) as immunogens in rats (Aurrand-Lions et al., 1996). Briefly, human Olfml3 peptides A and B coupled to 100 μg KLH carrier protein (keyhole limpet hemocyanin, Pierce) and mixed with adjuvant 56322 (Sigma), were used to immunize female Wister rats. In total, three injections were performed every 9 days. Two days after a final s.c. injection of human Olfml3 peptides, blasts from draining lymph nodes were fused to Sp2/0 cells, and hybridomas were selected in HAT-containing medium (Life Technologies). Growing clones were screened by ELISA for the production of monoclonal antibodies recognizing specifically human Olfml3-FLAG. Positive clones were subcloned, rescreened, and further tested. Antibodies were purified on protein G-Sepharose columns (GE HealthCare) according to the manufacturer instructions. Two Olfml3-binding antibodies, 46A9BO and 9F8BO, are of IgG2b isotype subclass and one, Z14A7, is of IgG2c isotype subclass. The 46A9BO and 9F8BO monoclonal antibodies were used for in vivo tumor graft models.

The target in assay [1] is T2, recombinant soluble Olfml-3 protein (UniProt Q9NRN5).
T2 sequence (looked up): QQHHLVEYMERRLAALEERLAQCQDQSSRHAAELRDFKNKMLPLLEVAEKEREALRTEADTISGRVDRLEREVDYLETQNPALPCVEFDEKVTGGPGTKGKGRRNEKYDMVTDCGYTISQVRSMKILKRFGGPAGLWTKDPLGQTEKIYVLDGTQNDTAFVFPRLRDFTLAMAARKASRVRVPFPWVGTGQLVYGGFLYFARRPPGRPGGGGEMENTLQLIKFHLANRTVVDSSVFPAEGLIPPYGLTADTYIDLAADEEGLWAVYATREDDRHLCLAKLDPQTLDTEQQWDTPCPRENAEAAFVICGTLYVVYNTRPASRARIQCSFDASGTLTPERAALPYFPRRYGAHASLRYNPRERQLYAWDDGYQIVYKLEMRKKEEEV
Put plainly: ELISA. A general note: ELISA stands for enzyme-linked immunosorbent assay.

Results are given in words; binding and its absence hold for the method and conditions named. Some entries that bind do so weakly or less than the wild type. For part of these data: Sequences can lack the tags named with a protein.

B1: 9F8BO monoclonal antibody (antibody, IgG2b, V domains shown)
VH: QVQLKESGPGLVQPSQTLSLTCTVSGFSLTRNNVHWVRQPPGKGLEWMGRMRYNGDTSYNSALKSRLSISRDTSKNQVFLKMNSLQIDDTGTYYCSREGYYDGTYYPDYWGQGVMVTVSS
VL: TSYELIQPPSASVTLENTVSITCSGDELSNKYAHWYQQKPDKTILEVMYKDSERPSGISDRFSGSSSGTTAILTIRDAQAEDEADYYCLSTYSDDDLPVFGGGTKLTVL
Consider B1, for which, in the assay with human Olfml3-FLAG, the binding result was “binds”.

B2: 46A9BO monoclonal antibody (glycosylated) (antibody, IgG2b, V domains shown)
VH: AVHLVESGGGLVQPKESLKISCAASGFTFSNAAMYWVRQAPGKGLEWVARIRTKPNDYATYYVDSVKGRFTISRDDSQSMVYLQMDNLKTEDTAMYYCTAFTEPDYWGQGVMVTVSS
VL: LIQPPSASVTLGSTVSLTCVGDELSKTYAHWYQQKPDKTIVSVIYKDSERPSGISDRFSGSSSGTTATLTIHGTLAEDEADYYCLSTYSDDNLPVFGGGTKLTVL
notes: also called mAb 2; anti-Olfml-3B
On to B2, for which, in assay [1], the binding result is recorded as “binds”.

B3: deglycosylated 46A9BO antibody (antibody, V domains shown)
VH: AVHLVESGGGLVQPKESLKISCAASGFTFSNAAMYWVRQAPGKGLEWVARIRTKPNDYATYYVDSVKGRFTISRDDSQSMVYLQMDNLKTEDTAMYYCTAFTEPDYWGQGVMVTVSS
VL: LIQPPSASVTLGSTVSLTCVGDELSKTYAHWYQQKPDKTIVSVIYKDSERPSGISDRFSGSSSGTTATLTIHGTLAEDEADYYCLSTYSDDNLPVFGGGTKLTVL
notes: Same rat IgG2b antibody as 46A9BO after deglycosylation; also called 46A9BO (deglycosylated)
Take B3: the binding result in assay [1] was “binds”.
